The values that follow come from paper PMC4286722.

Amino acid sequences for entries named in this document (tags omitted).
UniProt O18381, whole entry R37P: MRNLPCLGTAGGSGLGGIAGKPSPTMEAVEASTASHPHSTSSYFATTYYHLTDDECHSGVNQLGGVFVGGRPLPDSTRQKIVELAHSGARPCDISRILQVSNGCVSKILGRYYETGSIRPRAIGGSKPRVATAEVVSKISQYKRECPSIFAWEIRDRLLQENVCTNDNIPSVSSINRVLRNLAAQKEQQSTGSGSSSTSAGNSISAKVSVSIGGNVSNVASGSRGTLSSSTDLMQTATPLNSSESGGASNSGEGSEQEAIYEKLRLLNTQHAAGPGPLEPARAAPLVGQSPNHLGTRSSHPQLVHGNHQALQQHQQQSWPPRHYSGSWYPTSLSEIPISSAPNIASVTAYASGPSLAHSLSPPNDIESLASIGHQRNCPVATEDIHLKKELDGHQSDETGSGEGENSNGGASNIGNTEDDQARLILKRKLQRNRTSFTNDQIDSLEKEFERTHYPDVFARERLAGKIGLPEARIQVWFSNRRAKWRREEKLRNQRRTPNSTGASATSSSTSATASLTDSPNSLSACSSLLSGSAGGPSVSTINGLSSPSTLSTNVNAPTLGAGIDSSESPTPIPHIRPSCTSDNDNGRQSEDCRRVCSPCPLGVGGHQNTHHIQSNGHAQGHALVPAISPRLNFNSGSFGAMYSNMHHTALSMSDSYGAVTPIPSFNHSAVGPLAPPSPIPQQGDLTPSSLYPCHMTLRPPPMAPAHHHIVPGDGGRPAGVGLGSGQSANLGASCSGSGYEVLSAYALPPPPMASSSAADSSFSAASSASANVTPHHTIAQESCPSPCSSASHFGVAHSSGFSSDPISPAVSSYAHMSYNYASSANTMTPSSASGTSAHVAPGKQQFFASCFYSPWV

Construct, isoform or probe ends are uncertain for at least one entry. At least one result comes from cells or an extract, where the contact may be indirect. The comparison behind a weaker result is the experiment's own reference, which may not be listed here.

The data set concerns the target Eyeless (Ey) WT (UniProt O18381). In words: EMSA. The conditions noted are these: Ey alone, very weak binding; Embryo extract in lysis buffer (500 mM NaCl, 1% Triton X-100, 50 mM Tris pH 6.0, protease inhibitors, 10 mM PMSF), 3 ul used; 4% native PAGE in 0.5x TBE; protein in a lysate after overexpression; label: 32P. A general note: Mobility shift assays separate free from complexed probe on a gel.

“GATACAGTTTTCCAGCTCATTTGCTTGTAATTGGGCACCAA (double strand) [Ey2 (WT), Ato 3' enhancer (3.6BB)]”: the binding result was “binds more weakly”.
